PubChem BioAssay AID602196 – INSERM – 2012

Assay: 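Knock-downs that protect lung cancer cells from cisplatin or sensitise them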
System: human A549 lung cancer cells
Reagent: siRNA pair against human genes
Duration: 48 h transfection before cisplatin; time from cisplatin to read-out not stated
Treatment: cisplatin at a dose killing half of control-siRNA cells; exact dose and duration not given
Read-out: 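Cisplatin cell death as a shift from the 50% death seen with control siRNA; siRNAs toxic or growth-blocking alone scored 0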
Reading the numbers: two-siRNA summed score (-2 to +2): higher = both siRNAs protect from cisplatin killing; -2 means both sensitise
Call rule: 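siRNAs harmful alone (LDH or WST-1) get 0; others get +1 for less and -1 for more cisplatin killing; genes are active when the two siRNAs give the same sign, summing to ±2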
Meaning of the calls: active = both siRNAs shift cisplatin killing the same way; inactive = no consistent shift, or siRNA harmful alone
This is a random part of about 23,000 reagents tested. Over the whole deposit, 455 (2%) are marked active. 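Active includes both protection and sensitisation; some change values fall well beyond the stated -50 to +50 range.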 A number with no mark means an inactive call. Further read-outs or replicates are left out here. Not stated in the record: the amount of reagent.

two-siRNA summed score (-2 to +2)	gene
0	AMFR
1	LOC388015
0	LOC401237
-1	TRMT9B
0	NVL
0	SFTA2
0	UBE2G1
0	LOC387833
0	LOC387888
0	MEIOB
0	LOC153297
0	ENTR1
1	MAP2K3
2 (active)	LOC441115
1	SERTAD2
0	CNTN6
0	ERCC8
0	CLEC16A
0	CCDC12
0	LOC388629
0	TMEM39A
-1	GPRASP2
0	GRAMD2B
-1	GRIK2
0	PDZD8
0	FBXO2
0	MRPS2
-1	TREH
0	LOC389203
0	C16orf82
0	NPSR1
0	SMAD4
0	LOC388235
-1	ARIH2
0	CMC2
0	ANKRD26P1
-1	CACNG7
0	PYROXD1
0	SARS1
0	NUDT16L1
0	PLSCR3
0	TJAP1
0	C4B
0	TMEM94
0	BAG4
1	OR52E2
1	LINC00907
0	GOLT1B
-1	KCNJ4
0	DHX35
1	LOC441498
1	LINC02370
0	CYP2E1
0	MGST3
0	LOC128939
0	PGAP6
0	TMEM38B
